Here are results for 31 compounds from the supplement of paper PMC12889115.

In this experiment the test system is Salmonella enterica serovar Typhimurium SL1344. The experiment in a line: bacterial growth OD600 after 18 h with compound and polymyxin B; higher = more bacterial growth (less inhibition). To be noted: 50 µM, Mueller-Hinton broth.

Some of the results follow. These are raw signals, not scaled to a control.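 Primary screen: polymyxin B was added at a level permeabilizing Salmonella outer membranes while sparing inner membranes. DMSO wells, both with and without polymyxin B, established maximum growth. Plate-to-plate variation meant each plate was ranked on its own, and the lowest-OD600 compounds were selected as hits.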

As for `O=C(c1ccc2c(c1)OCO2)C1CCCN(Cc2ccccc2OC(F)F)C1` (stereo unspecified), the “bacterial growth OD600” value (polymyxin B 1 µg/mL) is 0.876.

For `O=C(CC(c1cccc(O)c1)c1cccc(Cl)c1)NCc1cccnc1` (stereo unspecified), the “bacterial growth OD600” value (polymyxin B 1 µg/mL) came to 0.941.

With `C=CCS(=O)(=O)N1CCC(C2CCN(c3ncccn3)CC2)C1` (stereo unspecified), the “bacterial growth OD600” value (polymyxin B 0.75 µg/mL) is 0.835.

With `COc1cc(NC(=O)CCC2CCCN(C(=O)CCc3cccnc3)C2)cc(OC)c1` (stereo unspecified), the “bacterial growth OD600” value (polymyxin B 1 µg/mL) came to 0.961.

With `Cc1cccc(C)c1Oc1ncccc1CNC(=O)CCc1cccnc1`, the “bacterial growth OD600” value (polymyxin B 1 µg/mL) was 1.11.

For the compound `O=C(c1ccc2c(c1)OCO2)C1CCCN(C(=O)C2CCOCC2)C1` (stereo unspecified), the “bacterial growth OD600” value (polymyxin B 1 µg/mL) came to 0.87.

As to `CCN(CC)CC(O)COc1ccc(CN(C)Cc2n[nH]c3c2CCCC3)cc1OC` (stereo unspecified), where the note is “polymyxin B 0.75 µg/mL”, the “bacterial growth OD600” value was 0.738.

With `Cc1cccc(Cc2nnc(CCC(=O)N3CCC(C(O)c4cccs4)CC3)o2)c1` (stereo unspecified), the “bacterial growth OD600” value (polymyxin B 1 µg/mL) was found to be 0.896.

Consider `Cc1nc(CN2C[C@H]3OC(=O)N(C4CCCC4)[C@H]3C2)c[nH]1`, for which, for the setting “polymyxin B 0.75 µg/mL”, the “bacterial growth OD600” value was determined as 0.804.

Turning to `COCCN(C)C(=O)c1csc2nc(-c3cccc(Cl)c3)cn12`, the “bacterial growth OD600” value (polymyxin B 0.75 µg/mL) is 0.629.

Regarding `Cc1nc(N2CCC(C(=O)N3CCC(c4ccncc4)CC3)CC2)nc2ccc(C(C)C)cc12`, where the note is “polymyxin B 0.75 µg/mL”, the “bacterial growth OD600” value turned out to be 0.836.

With `CCOc1ccccc1CN1CCNC(=O)C1CC(=O)NCc1cc(C)n(C)n1` (stereo unspecified), the “bacterial growth OD600” value (polymyxin B 1 µg/mL) came out at 0.824.

Turning to `c1ccc(-c2ncc3c(n2)CCCC3NCc2cccnc2)cc1` (stereo unspecified), under “polymyxin B 0.75 µg/mL”, the “bacterial growth OD600” value came to 0.918.

As to `CN(CCc1ccccn1)[C@@H]1CCN(Cc2c(F)cccc2Cl)C[C@H]1O`, where the note is “polymyxin B 1 µg/mL”, the “bacterial growth OD600” value was 0.844.

Consider `CC(C)Cc1nc2cc(NS(=O)(=O)N(C)C)cc(C(=O)N(C)CC3CCCCO3)c2n1C` (stereo unspecified), for which the “bacterial growth OD600” value (polymyxin B 0.75 µg/mL) came out at 0.765.

Turning to `C=CCNC(=O)N1CCC(C2CCN(Cc3cccc(F)c3F)CC2)C1` (stereo unspecified), where the note is “polymyxin B 0.75 µg/mL”, the “bacterial growth OD600” value turned out to be 0.868.

On to `CC(C)CCCC1CN(C(=O)C2CCOCC2)CCO1` (stereo unspecified), for which the “bacterial growth OD600” value (polymyxin B 1 µg/mL) came out at 0.843.

Regarding `Cc1ccc(C(=O)N2CCC(C(Cc3ccc(F)cc3F)N(C)C(=O)c3cccnc3)CC2)cc1C` (stereo unspecified), the “bacterial growth OD600” value (polymyxin B 0.75 µg/mL) came to 0.831.

Take `CN(c1ncccc1CNCc1ccc2c(c1)CCO2)C1CCCCC1`: where the note is “polymyxin B 1 µg/mL”, the “bacterial growth OD600” value stood at 0.939.

`O=C(NCCc1cccc(C(F)(F)F)c1)c1cc(CN2CCCC(O)C2)on1` (stereo unspecified): the “bacterial growth OD600” value (polymyxin B 0.75 µg/mL) was 0.759.

In the case of `Cc1ccccc1C1(CC(=O)N2CCN(C3CCCCC3)CC2)CC(=O)N(Cc2cccnc2)C1=O` (stereo unspecified), the “bacterial growth OD600” value (polymyxin B 0.75 µg/mL) was 0.772.

For `Cc1c(C(=O)NCCCc2ccncc2)sc2ncnc(N3CCCCCCC3)c12`, the “bacterial growth OD600” value (polymyxin B 0.75 µg/mL) is 0.001.

As to `Cc1oc(-c2ccc(NC(=O)Cc3ccccc3)cc2)nc1CNC(=O)c1cccc(-c2ccco2)c1`, where the note is “polymyxin B 0.75 µg/mL”, the “bacterial growth OD600” value amounted to 0.876.

For `COc1ccc(OC)c(-c2nc(CN3CCCCC3c3cccc(F)c3)c(C)o2)c1` (stereo unspecified), the “bacterial growth OD600” value (polymyxin B 1 µg/mL) was 0.008.

Consider `CN(C)C(=O)CCC(=O)N1CCC(n2nccc2NC(=O)Nc2ccccc2Cl)CC1`, for which, for the setting “polymyxin B 0.75 µg/mL”, the “bacterial growth OD600” value was 0.811.

Regarding `CC(C)c1cc(C(=O)N2CCCC(C(=O)c3ccc4ccccc4c3)C2)no1` (stereo unspecified), the “bacterial growth OD600” value (polymyxin B 1 µg/mL) came to 0.155.

Turning to `Cc1ccccc1CCC1CCCN(C(=O)CN2CCCCC2=O)C1` (stereo unspecified), the “bacterial growth OD600” value (polymyxin B 0.75 µg/mL) worked out at 0.937.

Regarding `COc1ccc(CC2=NOC(CNC(=O)c3ccccc3C(F)(F)F)C2)cc1` (stereo unspecified), for the setting “polymyxin B 0.75 µg/mL”, the “bacterial growth OD600” value is 0.8.

Take `CCOc1ccc(CN(C)CC2CCCN(CCc3ccc(OC)cc3)C2)cc1` (stereo unspecified): the “bacterial growth OD600” value (polymyxin B 1 µg/mL) stood at 0.858.

Turning to `O=C(c1cccc(-n2cnnc2)c1)N1CCOC(CCc2ccccc2)C1` (stereo unspecified), the “bacterial growth OD600” value (polymyxin B 0.75 µg/mL) amounted to 0.815.

`O=C(CCC(F)(F)F)NC1CC(=O)N(CCc2ccccc2)C1` (stereo unspecified): the “bacterial growth OD600” value (polymyxin B 1 µg/mL) worked out at 1.03.
